Drawing on US20040197827A1, this text covers binding for one substance.

Sequences of proteins named here, by UniProt entry; tags and fusion partners are left off. A change or cut given only in a name is not applied to a line headed by its entry. Residues count along the entry.
UniProt P10275, residues 325-918: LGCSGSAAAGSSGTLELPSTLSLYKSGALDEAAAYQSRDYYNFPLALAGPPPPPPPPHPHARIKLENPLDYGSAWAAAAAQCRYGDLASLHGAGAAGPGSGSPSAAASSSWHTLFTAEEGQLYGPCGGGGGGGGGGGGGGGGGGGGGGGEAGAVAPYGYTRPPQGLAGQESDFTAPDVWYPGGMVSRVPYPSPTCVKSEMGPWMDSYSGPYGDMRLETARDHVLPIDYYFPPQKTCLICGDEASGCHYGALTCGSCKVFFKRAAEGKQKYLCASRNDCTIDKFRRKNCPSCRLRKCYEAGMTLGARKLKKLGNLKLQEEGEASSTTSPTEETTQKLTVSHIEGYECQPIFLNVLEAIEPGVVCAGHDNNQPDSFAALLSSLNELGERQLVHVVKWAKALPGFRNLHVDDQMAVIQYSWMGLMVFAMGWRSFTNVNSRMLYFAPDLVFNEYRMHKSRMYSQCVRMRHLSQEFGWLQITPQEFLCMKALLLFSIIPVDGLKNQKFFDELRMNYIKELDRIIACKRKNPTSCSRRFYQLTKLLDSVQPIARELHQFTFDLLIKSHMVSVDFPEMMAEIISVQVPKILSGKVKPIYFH
UniProt Q01844: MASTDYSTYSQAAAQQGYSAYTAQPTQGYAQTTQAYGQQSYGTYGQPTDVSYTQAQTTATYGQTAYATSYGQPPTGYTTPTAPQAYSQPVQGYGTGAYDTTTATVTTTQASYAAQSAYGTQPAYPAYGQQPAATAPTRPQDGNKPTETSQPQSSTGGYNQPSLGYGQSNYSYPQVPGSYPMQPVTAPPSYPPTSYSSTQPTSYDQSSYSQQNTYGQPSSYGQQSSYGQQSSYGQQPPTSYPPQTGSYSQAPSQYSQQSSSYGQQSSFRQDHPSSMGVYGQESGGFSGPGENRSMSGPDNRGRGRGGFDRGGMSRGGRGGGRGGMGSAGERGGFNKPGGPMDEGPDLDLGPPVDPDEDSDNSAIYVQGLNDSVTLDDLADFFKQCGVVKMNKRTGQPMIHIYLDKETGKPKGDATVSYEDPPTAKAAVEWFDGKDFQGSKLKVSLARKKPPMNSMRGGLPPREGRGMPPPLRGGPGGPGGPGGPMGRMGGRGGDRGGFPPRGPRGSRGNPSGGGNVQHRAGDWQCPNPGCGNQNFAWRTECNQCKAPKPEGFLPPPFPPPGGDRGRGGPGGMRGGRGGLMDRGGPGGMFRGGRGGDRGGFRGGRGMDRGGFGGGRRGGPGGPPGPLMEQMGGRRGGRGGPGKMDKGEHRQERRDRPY

The experiment has as its target androgen receptor fragment AR2 (AS 325-918), C-terminus with the DNA and ligand binding domains (human) (UniProt P10275). The experiment is described as follows: yeast two-hybrid system (beta-galactosidase positive clones).

No constants are given. Whether binding was seen depends on the method and setting. Some results given as binding are weak or reduced against the parent protein; the word gives no strength.

On to “C-terminal part of human EWS (AS 319-656) (from UniProt Q01844 319-656)”, for which the binding entry is reported as “binds”.
